# Out of some 320,000 compounds screened, about 620 (0.19%) were called active. Inconclusive results, whose numbers are uncertain, are shown with a selection of clear calls. Rule as the data show it: active = activation above about 80%; inconclusive = between about 30% and that limit; inactive = weaker than that.
# Chains of the proteins cited; added tags and fusions are not shown.
# UniProt Q8NER1, whole entry, looked up: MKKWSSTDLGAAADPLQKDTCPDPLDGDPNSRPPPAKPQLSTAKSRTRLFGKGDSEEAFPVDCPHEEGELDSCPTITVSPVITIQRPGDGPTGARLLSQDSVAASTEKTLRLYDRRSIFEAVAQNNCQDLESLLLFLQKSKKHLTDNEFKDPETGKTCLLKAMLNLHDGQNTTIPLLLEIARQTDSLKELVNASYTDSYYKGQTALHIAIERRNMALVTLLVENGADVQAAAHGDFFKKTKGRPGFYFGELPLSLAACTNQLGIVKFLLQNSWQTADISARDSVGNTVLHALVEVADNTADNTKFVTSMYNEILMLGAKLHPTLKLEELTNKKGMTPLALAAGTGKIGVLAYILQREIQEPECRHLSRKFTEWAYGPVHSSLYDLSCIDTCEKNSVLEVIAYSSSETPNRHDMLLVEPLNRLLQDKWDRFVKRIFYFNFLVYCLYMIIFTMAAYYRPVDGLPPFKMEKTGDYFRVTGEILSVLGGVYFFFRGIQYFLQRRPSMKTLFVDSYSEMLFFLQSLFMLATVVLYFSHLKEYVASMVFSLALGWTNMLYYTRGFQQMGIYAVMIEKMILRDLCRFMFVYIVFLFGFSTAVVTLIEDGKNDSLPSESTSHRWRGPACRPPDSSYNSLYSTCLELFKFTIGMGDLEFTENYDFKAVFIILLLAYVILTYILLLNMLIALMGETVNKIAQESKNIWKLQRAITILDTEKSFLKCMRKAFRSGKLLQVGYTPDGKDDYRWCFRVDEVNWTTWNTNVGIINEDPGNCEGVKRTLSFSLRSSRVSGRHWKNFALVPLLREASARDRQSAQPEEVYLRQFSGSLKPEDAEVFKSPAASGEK
# Molecular target: Transient receptor potential cation channel subfamily V member 1 (Homo sapiens) (UniProt Q8NER1)
# Assay: HTS Assay for Compounds that Act as Agonists of the Vanilloid Receptor 1; also: 0% is about no effect
# Settings: TRPV1-expressing cells, Fluo-8 calcium influx, agonist mode; at 8.33 µM, hits give high values
# Procedure, shortened: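 Fluo-8 calcium influx in TRPV1-expressing cells, kinetic read (ex 480/em 520 nm). Compound added and read 3 min for agonist activity, followed by capsaicin at EC20 final and 2 min further read for enhancement.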
row,Structure (SMILES),activation
1,Cc1ccc(C(=O)Nc2ccc3ncccc3c2)cc1,inconclusive: 67.8%
2,COc1ccccc1C(=O)Nc1ccnn1C1CCN(Cc2ccccc2OCCO)CC1,inactive: 0.556%
3,COc1ccc(/C=C/C(=O)c2ccoc2)cc1,inconclusive: 37.8%
4,CCOC(=O)N1CCN(c2ccc(Cl)cc2)CC1,inconclusive: 67.4%
5,CCN(CC)S(=O)(=O)c1ccc(O)c(NS(=O)(=O)c2ccccc2F)c1,inactive: -3.6%
6,CN(C)C(=O)c1cn(-c2ccccc2)nc1-c1cc2ccccc2o1,inconclusive: 31.2%
7,O=C(CC1=NC2(CCCC2)Cc2ccccc21)N1CCOCC1,inconclusive: 52.6%
8,Cc1ccccc1Cn1c([N+](=O)[O-])cnc1C,inconclusive: 55.7%
9,COc1ccc(CN(C(=O)/C=C/C(=O)c2ccc(OC)cc2O)C(C(=O)NC2CCCCC2)c2ccncc2)cc1 (stereo not drawn),inconclusive: 34.6%
10,Cc1ccc(C(=O)C(C)Oc2cccc(NC(=O)c3ccco3)c2)cc1 (stereo not drawn),inconclusive: 64.6%
11,O=C(NCc1ccon1)C1CCC(=O)N(Cc2cccc(C(F)(F)F)c2)C1 (stereo not drawn),inactive: -6.56%
12,CC(NC(=S)NCc1ccc(F)cc1)C12CC3CC(CC(C3)C1)C2 (stereo not drawn),inconclusive: 39.9%
13,CC(=O)c1cc(-c2ccc(F)cc2)n(CCC(=O)Nc2cccnc2)c1C,active: 81.4%
14,Cc1cc(C)c2sc(N(CCCN(C)C)C(=O)c3ccc(S(=O)(=O)N(C)C4CCCCC4)cc3)nc2c1,inconclusive: 33.2%
15,O=C(NCc1ccncc1)c1cc(C(=O)C2CCCCC2)c[nH]1,inconclusive: 54.4%
16,CC(=O)c1ccc(C(=O)NC2CCCN(Cc3ccc(Cl)cc3)C2)s1 (stereo not drawn),inconclusive: 33.7%
17,CC(C)(C)c1nnc(NC(=S)Nc2ccccc2)s1,inactive: 9.15%
18,CCOC(=O)c1cnc2ccc(C)cc2c1N(C)Cc1ccccc1,inconclusive: 52.4%
19,COC(=O)CNC(c1ccccc1)c1cc(Br)ccc1NC(=O)CNC(=O)OCc1ccccc1 (stereo not drawn),inconclusive: 64.3%
20,Cc1ccc(S(=O)(=O)NCCC(=O)N2CCC(Cc3ccccc3)CC2)cc1,inactive: 26.4%
21,Cc1ccc2c(CN3CCCCC3)cc(=O)oc2c1,inactive: 1.06%
22,CCOC(=O)CNC(=O)Cn1cnc2c(nnn2-c2ccccc2)c1=O,inactive: 1.11%
23,COC(=O)N/N=C/c1ccc(-c2ccccc2Cl)o1,inactive: 4.01%
24,CCOc1ccc(NC(=O)CSc2nnc(-c3ccccc3Cl)n2Cc2ccco2)cc1,inactive: -3.58%

row,Structure (SMILES),activation
1,CCN(CC)C1=NS(=O)(=O)c2cc([N+](=O)[O-])ccc21,inactive: -1.59%
2,CCCOc1ccc(CCC(=O)N/N=C/c2ccncc2)cc1,inconclusive: 53.5%
3,Cc1ccc(C(=O)N(CC(=O)NC2CCCC2)c2ccccc2C)s1,inconclusive: 31.9%
4,COc1ccc(/C=C(/C(=O)Nc2ccccc2C(=O)NC(C)C)c2ccccc2)cc1,inconclusive: 37.1%
5,Cc1ccc(NC(=O)CO/N=C(\N)c2nonc2N)cc1C,inconclusive: 61.4%
6,O=C(NCc1cccc(Cl)c1)c1cc(COc2ccc3ncccc3c2)on1,inactive: 25.3%
7,Cc1nc2c3cnn(-c4ccc(C)c(C)c4)c3ncn2n1,inconclusive: 41.5%
8,COc1ccc(/C=C/c2ccc(=O)n(Cc3ccccc3)n2)cc1,inconclusive: 43.7%
9,Cc1cc(C(=O)NC2CC(C)(C)Cc3c2cnn3-c2cccc(F)c2)n(C)n1 (stereo not drawn),inconclusive: 77.7%
10,O=C(N/N=C/c1ccc(C(F)(F)F)cc1)c1ccc(O)cc1,inconclusive: 72.5%
11,Cc1cc(C)nc(-n2nc(C)cc2NC(=O)CNCc2ccccc2)n1,inactive: -0.308%
12,CN(C(=O)CSc1nnnn1-c1ccccc1)C1CCCCC1,inconclusive: 31.8%
13,CCOc1ccc(CNC(=O)CCc2cn(C)c3ccccc23)cc1OC,inconclusive: 71.4%
14,c1ccc(CNc2nc(CN3CCOCC3)nc3scc(-c4ccccc4)c23)cc1,inconclusive: 70.4%
15,CC1CCCCC1NC(=S)NC(=O)c1ccccc1Br (stereo not drawn),inactive: 28.6%
16,Cc1ccc(C(=O)Nc2sc3c(c2C#N)CCCCC3)cc1C,inconclusive: 62.8%
17,Cc1ccc(CNC(=O)c2cc3c(C)nc4ccccc4c3o2)cc1,inactive: 19.8%
18,Cc1nc(Nc2ccccc2Cl)sc1C(=O)Nc1ccccc1,inconclusive: 75.8%
19,CCCCCC(O)(c1ccccc1)C(CN1CCOCC1)c1ccccc1 (stereo not drawn),inactive: 28.3%
20,Cc1c(C(=O)O)[nH]c2c1C(=O)CC(c1ccccc1)C2 (stereo not drawn),inconclusive: 45.7%
21,Cc1ccc(-c2cn3cccc(C)c3n2)cc1,inactive: 14.6%
22,O=C(N/N=C/c1cc(Br)c(Br)o1)c1cc2ccccc2o1,inconclusive: 75%
23,COc1cccc(C(=O)NC(=S)Nc2ccc(N3CCCC3)cc2)c1,inactive: -7.43%
24,COc1cc(/C=C/C(=O)N2CCOCC2)ccc1OCc1ccccc1,inconclusive: 66%

# An excerpt of these results, tab-delimited:
row	Structure (SMILES)	activation
23	COC(=O)N/N=C/c1ccc(-c2ccccc2Cl)o1	inactive: 4.01%
24	CCOc1ccc(NC(=O)CSc2nnc(-c3ccccc3Cl)n2Cc2ccco2)cc1	inactive: -3.58%
1	CCN(CC)C1=NS(=O)(=O)c2cc([N+](=O)[O-])ccc21	inactive: -1.59%

# (list continues)

row,Structure (SMILES),activation
1,Cc1nc(-c2cccnc2)sc1C(=O)Nc1ccc(C(F)(F)F)cc1,inactive: -1.35%
2,N/C(=N\OC(=O)c1ccncc1)c1cccc([N+](=O)[O-])c1,inactive: 6.51%
3,Cc1ccc(Cl)cc1N1CCN(C(=O)COc2ccc(S(=O)(=O)NC(C)C)cc2)CC1,inactive: -1.98%
4,COc1ccc(CCN(C(=O)C(F)(F)F)C(C(=O)NC2CCCCC2)c2ccc(C)s2)cc1 (stereo not drawn),inconclusive: 30.8%
5,Cc1noc(/C=C/N(C)C)c1S(=O)(=O)N(C)CC(=O)N1CCc2ccccc21,inactive: -0.371%
6,Cc1cccc(NC(=O)CN(C)C(=O)c2ccc3ccccc3n2)c1C,inactive: 9.14%
7,CC(C)c1ccc(NC(=S)N2CCN(Cc3ccccc3)CC2)cc1,inconclusive: 41.2%
8,CC(C)(C)c1ccc(C(=O)N2CCCN(c3ccc([N+](=O)[O-])cn3)CC2)cc1,inconclusive: 35.5%
9,O=C(CCCc1c[nH]c2ccccc12)NCCc1c[nH]c2ccccc12,inconclusive: 39.6%
10,C/C(=N\NC(=O)c1ccc(CN2CCOCC2)cc1)c1ccc(NC(=O)c2ccccc2)cc1,inconclusive: 47.7%
11,Cc1cc(NC(=O)CCN2C(=O)C3C4C=CC(C4)C3C2=O)c2ccccc2n1 (stereo not drawn),inactive: -0.809%
12,COc1ccc2c(c1)[nH]c1c(N3CCN(Cc4ccc5c(c4)OCO5)CC3)ncnc12,inactive: 13.4%
13,O=C(/C=C/c1cccc(F)c1)N1CCc2ccccc21,inconclusive: 70.3%
14,CC(CC(=O)NCc1ccc(Cl)cc1)c1ccccc1 (stereo not drawn),inactive: 21%
15,Cc1ccnc(NC(=O)c2ccc(Br)s2)c1,inconclusive: 54.5%
16,O=C(c1ccccc1F)N1CCN(c2ccccc2F)CC1,inconclusive: 33%
17,Cc1cccc(N2CCN(C3=NC(=O)C(=C4CCCCC4)S3)CC2)c1,inconclusive: 42.2%
18,O=C(CN1CCN(c2ccc(O)cc2)CC1)Nc1ccc(SC(F)F)cc1,inactive: 10.2%
19,O=C(COc1ccc(Nc2ccccc2)cc1)Nc1ccncc1,inconclusive: 35.3%
20,O=C(Nc1ccncc1)c1ccc(Cl)cc1,inconclusive: 59.5%
21,CCCC1C(C(=O)OCC)=C(C)NC(C)=C1C(=O)OCC,inactive: 4.14%
22,COc1ccc(-n2c(COc3ccc(C)cc3)nnc2SCc2ccc(C#N)cc2)cc1,inconclusive: 42.1%
23,Brc1ccc(-c2cn3cccnc3n2)cc1,inconclusive: 33.9%
24,O=C(NCc1ccncc1)C(=O)Nc1nc(C23CC4CC(CC(C4)C2)C3)cs1,inconclusive: 63.7%

# As entered above:
# O=C(CN1CCN(c2ccc(O)cc2)CC1)Nc1ccc(SC(F)F)cc1 – activation: inactive: 10.2%
# Cc1noc(/C=C/N(C)C)c1S(=O)(=O)N(C)CC(=O)N1CCc2ccccc21 – activation: inactive: -0.371%

# Following part.

row,Structure (SMILES),activation
1,Cc1ccsc1/C=N/n1c(COc2ccccc2)n[nH]c1=S,inactive: 1.98%
2,NNC(=O)[C@H]1C[C@@H]1c1ccccc1,inconclusive: 50.2%
3,COc1ccccc1CNC(=O)Cc1ccc(Br)cc1,inconclusive: 39.6%
4,CN1c2ccccc2-c2nc3ccccc3n2C1c1ccncc1 (stereo not drawn),inactive: 2.49%
5,Cc1ccc(NS(=O)(=O)c2ccc3c(c2)NC(=O)CCS3)cc1C,inconclusive: 49%
6,N#C/C(=C\c1ccccn1)c1nc2ccccc2s1,inconclusive: 37.4%
7,CC(C)(C)c1nnc(N/N=C/c2ccc(Br)cc2)n(N)c1=O,inactive: 4.71%
8,N#CCC1c2ccccc2CCN1C(=O)Nc1ccc(C(F)(F)F)cc1 (stereo not drawn),inconclusive: 51.2%
9,CCOc1ccccc1NC(=O)Nc1cccc(C(C)=O)c1,inconclusive: 36.8%
10,COC(=O)c1cccc(NC(=O)Cc2ccsc2)c1,inconclusive: 49.2%
11,O=C(c1cccs1)N1CCN(c2nc3c(F)cc(F)cc3s2)CC1,inconclusive: 53.6%
12,Cc1ccc(S(=O)(=O)N2CCCN(Cc3nc4ccccc4c(=O)[nH]3)CC2)cc1,inactive: -5.93%
13,COc1ccc(/C=N/NC(=O)c2ccccc2)cc1CN1CCN(c2ccc(F)cc2)CC1,inactive: 12.7%
14,Cc1ncc(CC(=O)n2cc(C(=O)c3cc(F)ccc3O)cn2)s1,inconclusive: 30.6%
15,CCn1c(SCC(=O)OC2CCCCC2)nc2ccccc2c1=O,inconclusive: 35%
16,O=C(Nc1ccsc1C(=O)O)c1ccccc1Cl,inactive: -3.6%
17,Cc1c(CNCCc2ccc(Cl)cc2)c(C(=O)O)c(C)n1Cc1ccccc1,inactive: 2.14%
18,Cc1nc2ccccc2c(=O)n1NC(=O)c1ccc(C(C)(C)C)cc1,inconclusive: 63%
19,COc1ccc(-c2nc3cc(NC(=O)Cc4ccc(OC)c(OC)c4)ccc3o2)cc1,inconclusive: 72.4%
20,COc1ccc(/C=C/C(=O)c2ccccc2)cc1Cn1nnc2ccccc21,inactive: 1.55%
21,O/N=C(\c1ccccn1)C1CC1c1ccccc1 (stereo not drawn),inactive: 5.86%

# Reference: PubChem BioAssay AID540275 (National Center for Advancing Translational Sciences (NCATS), 2011)
